The source of these data is PMC11705415.

Protein sequences, listed by entry. Tags and fused reporters are not part of them. Lines headed by an entry give the natural chain unless they say otherwise; changes in a name come on top.
UniProt P62069: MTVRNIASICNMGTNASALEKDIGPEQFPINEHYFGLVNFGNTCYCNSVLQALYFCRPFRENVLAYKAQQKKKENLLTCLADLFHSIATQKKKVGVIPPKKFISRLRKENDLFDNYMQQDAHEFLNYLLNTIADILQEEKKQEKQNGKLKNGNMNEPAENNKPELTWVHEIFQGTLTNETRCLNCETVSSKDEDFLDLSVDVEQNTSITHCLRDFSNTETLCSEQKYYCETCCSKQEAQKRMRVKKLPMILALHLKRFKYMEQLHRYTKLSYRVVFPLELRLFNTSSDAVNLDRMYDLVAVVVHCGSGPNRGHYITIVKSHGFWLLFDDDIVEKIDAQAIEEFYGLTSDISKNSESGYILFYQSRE

These are yes or no findings as the source states them, for the method shown. Binding seen in cells or lysates may run through a third protein. These calls come from enrichment with a bait or labelling near it, and not all partners need be listed.

The test has as its target USP46-WT-BirA(R118G)-HA fusion protein (mouse) (UniProt P62069). The test is described as follows: proximity labelling; BioID: knock-in Neuro2a cells stably expressing USP46 (WT or ΔK92)-BirA(R118G)-HA, 50 μM biotin for 24 h; lysis in TNE buffer with 0.1% Triton X-100; streptavidin Mag Sepharose pull-down, SDS-PAGE, LC-MS/MS; proteins of the CRAPome list and of intact Neuro2a cells excluded.

B1: STRN4 (protein, UniProt P58404 1-760)
chain: MMEERAAAAVASAASSCRPLGSGTAPNPTAAAPASSPAPGPGPVGKGGGGGGSPGPTAGPEPLSLPGILHFIQHEWARFEAEKARWEAERAELQAQVAFLQGERKGQENLKTDLVRRIKMLEYALKQERAKYHKLKFGTDLNQGEKKTDLSEQVSNGPVESVTLENSPLVWKEGRQLLRQYLEEVGYTDTILDMRSKRVRSLLGRSLELNGAGEPVEGAPRASPGPGGLSGGESLLVKQIEEQIKRNAAGKDGKERLGGSVLEQIPFLQNCEDEDSDEDDELDSVQHKKQRVRLPSKALVPEMEDEDEEDDSEDAINEFDFLGSGEDGEGSPDPRRCTSEGNPHELESRRVKLQGILADLRDVDGLPPKVTVPPPGTPQPRPHEGSFGFSSDVFIMDTIGGGEVSLGDLADLTVTNDNDLSCDLSDSKDAFKKTWNPKFTLRSHYDGIRSLAFHHSQSALLTASEDGTLKLWNLQKAVTAKKNAALDVEPIHAFRAHRGPVLAVTMGSNSEYCYSGGADARIHSWKIPDLNMDPYDGYDPSVLSHVLEGHGDAVWGLAFSPTSQRLASCSADGTVRIWDPSSSGPSCLCTFPMDGEHGIPTSVAFTSTEPAHVVASFRSGDTVLYDLEAGSALLTLESRGSSGPAQINQVVSHPSQPLTITAHDDRGIRFLDNRTGKSVHSMVAHLDAVTCLAVDPNGVFLMSGSHDCSLRLWSLDNKTCVQEITAHRKKHEEAIHAVACHPSKALIASAGADALAKVFV
modifications: biotin (proximity-dependent biotinylation, sites not stated)
With B1, the binding entry is given as “binds”.

B2: gephyrin (protein, UniProt Q8BUV3 1-769)
chain: MATEGMILTNHDHQIRVGVLTVSDSCFRNLAEDRSGINLKDLVQDPSLLGGTISAYKIVPDEIEEIKETLIDWCDEKELNLILTTGGTGFAPRDVTPEATKEVIEREAPGMALAMLMGSLNVTPLGMLSRPVCGIRGKTLIINLPGSKKGSQECFQFILPALPHAIDLLRDAIVKVKEVHDELEDLPSPPPPLSPPPTTSPHKQTEDKGVQCEEEEEEKKDSGVASTEDSSSSHITAAALAAKIPDSIISRGVQVLPRDTASLSTTPSESPRAQATSRLSTASCPTPKQIRRPDESKGVASRVGSLKARLPSCSSTYSVSEVQSRCSSKENILRASHSAVDITKVARRHRMSPFPLTSMDKAFITVLEMTPVLGTEIINYRDGMGRVLAQDVYAKDNLPPFPASVKDGYAVRAADGPGDRFIIGESQAGEQPTQTVMPGQVMRVTTGAPIPCGADAVVQVEDTELIRESDDGTEELEVRILVQARPGQDIRPIGHDIKRGECVLAKGTHMGPSEIGLLATVGVTEVEVNKFPVVAVMSTGNELLNPEDDLLPGKIRDSNRSTLLATIQEHGYPTINLGIVGDNPDDLLNALNEGISRADVIITSGGVSMGEKDYLKQVLDIDLHAQIHFGRVFMKPGLPTTFATLDIDGVRKIIFALPGNPVSAVVTCNLFVVPALRKMQGILDPRPTIIKARLSCDVKLDPRPEYHRCILTWHHQEPLPWAQSTGNQMSSRLMSMRSANGLLMLPPKTEQYVELHKGEVVDVMVIGRL
modifications: biotin (proximity-dependent biotinylation, sites not stated)
With B2, the binding entry is on record as “binds”.
